2 compounds from patent US10894054B2, “FXR agonist compositions for combination therapy” (Intercept Pharmaceuticals, Inc., priority 2015, dated 2021) can be followed below.

The series concerns liver mRNA samples from the study mice. Kind of series: RNA-Seq hepatic terminal gene expression. Format: in vivo, male C57BL/6 mice. Conditions: alone or combined, relative to vehicle group. Here is the method:
RNA purification for RNAseq: Lysis of tissue was performed using a MP FastPrep system. Briefly, 30-50 mg liver biopsy is homogenized and used for RNA extraction on NucleoSpin Plus RNA columns (Macherey-Nagel) as recommended by the supplier. The quantity of the RNA was assessed using a NanoDrop 2000 spectrophotometer (ThermoScientific).
The sequencing data were aligned to the Mus musculus genome obtained from the Ensembl database using the Spliced Transcripts Alignment to a Reference (STAR) software. The python script HTSeq-count available in the HTSeq package was used to count the number of reads mapping to annotated regions. All downstream analysis steps were implemented as scripts for R. For the bioinformatics analysis the quality of the data were evaluated using the standard RNA-seq quality control parameters. To evaluate the inter and intra group variability, principal component analysis and hierarchical clustering were performed. To identify differentially expressed genes the R-package edgeR was used. The list off differentially expressed genes was cross-referenced with information about established NASH biomarkers. Pathway analyses were performed to identify pathways differentially perturbed between the groups.

Where [1] appears, read: high dose: OCA 30 mg/kg, MET 150 mg/kg.
Where [2] appears, read: low dose: OCA 10 mg/kg, MET 50 mg/kg.

As for `CN(C)C(=N)N=C(N)N` [MET, metformin, reference compound], the “Number of Regulated Genes” value is recorded as 120 under setting [1] and 181 under setting [2].

For the compound `CC[C@H]1[C@@H](O)[C@@H]2[C@H](CC[C@]3(C)[C@@H]([C@H](C)CCC(=O)O)CC[C@@H]23)[C@@]2(C)CC[C@@H](O)C[C@@H]12` [OCA, 3α,7α-dihydroxy-6α-ethyl-5β-cholan-24-oic acid], the “Number of Regulated Genes” value came to 689 under setting [1] and 21 under setting [2].
